Results as given in PubChem BioAssay (NCI).
What follows is the remainder of the data, with few or none of the hits. The source made the active and inactive calls. Cut-off read from the data, not from the text of the source: active = growth inhibition above about 70%; inactive = the rest.

Experiments:
[1] = NCI Yeast Anticancer Drug Screen. Data for the rad52 strain (AID 147);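 note: 0% = growth of vehicle-treated control cultures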; settings: S. cerevisiae rad52 mutant growth inhibition, active compounds read high
How it was run: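 Growth of repair-deficient yeast cells was compared between compound-treated and vehicle-treated cultures to give percent inhibition.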

[2] = NCI Yeast Anticancer Drug Screen. Data for the wt1 strain (AID 149);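 note: 0% = growth of vehicle-treated wt1 cultures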; settings: S. cerevisiae wt1 strain (SPY 50644) growth inhibition, active compounds read high
How it was run: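 wt1 strain grown with compound or vehicle; inhibition taken from the growth difference.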

[3] = NCI Yeast Anticancer Drug Screen. Data for the rad50EPP+ strain (AID 151);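 note: 0% = growth of vehicle-treated control cultures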; settings: S. cerevisiae rad50 mutant strain, active compounds read high
How it was run: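 Measured: growth inhibition of rad50EPP+ yeast. Reference: vehicle-treated controls. Screen uses strains with defined genetic alterations in DNA damage repair or cell cycle control.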

[4] = NCI Yeast Anticancer Drug Screen. Data for the rad14 strain (AID 159);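 note: 0% = growth of vehicle-treated control cultures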; settings: S. cerevisiae rad14 strain growth inhibition, active compounds read high
How it was run: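 DNA repair-defective yeast, compound-exposed; % growth inhibition derived by comparison with vehicle-treated controls.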

[5] = NCI Yeast Anticancer Drug Screen. Data for the CLN2oe strain (AID 163);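 note: 0% = growth of vehicle-only control cultures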; settings: S. cerevisiae CLN2oe strain, active compounds read high
How it was run: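 Cells of an engineered yeast line with disturbed cell-cycle regulation are treated with compound. Inhibition of growth is then calculated relative to the vehicle-treated reference.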

[6] = NCI Yeast Anticancer Drug Screen. Data for the wt2 strain (AID 169);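 note: 0% = growth of vehicle-treated yeast cultures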; settings: S. cerevisiae wt2 strain growth inhibition, active compounds read high
How it was run: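 Growth of compound-treated yeast is measured and expressed as inhibition relative to vehicle-only controls.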

[7] = NCI Yeast Anticancer Drug Screen. Data for the mlh1 strain (AID 171);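 note: 0% = growth of vehicle-treated control cultures of the same strain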; settings: S. cerevisiae mlh1 strain growth inhibition, active compounds read high
How it was run: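 Test agents were incubated with yeast bearing a defined DNA damage repair or cell cycle control alteration; values are growth inhibition normalised to vehicle-treated cultures.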

[8] = NCI Yeast Anticancer Drug Screen. Data for the sgs1 strain (AID 173);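 note: 0% = growth of vehicle-only control cultures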; settings: S. cerevisiae sgs1 mutant, active compounds read high
How it was run: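 Strain with an altered DNA repair or cell cycle pathway exposed to compound. Growth then measured. Value = inhibition versus vehicle control.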

Measured: growth inhibition

COc1cc2c3cc1Oc1c(O)c(OC)cc4c1[C@H](Cc1ccc(cc1)Oc1cc(ccc1O)C[C@H]3N(C)CC2)N(C)CC4
inactive: [1]; at 1.2 µM -2% | [1]; at 3.7 µM -7% | [1]; at 11.0 µM -4% | [1]; at 33.0 µM -8% | [1]; at 100.0 µM -8% | [2]; at 1.2 µM 1% | [2]; at 3.7 µM -4% | [2]; at 11.0 µM -4% | [2]; at 33.0 µM -4% | [2]; at 100.0 µM -7% | [3]; at 1.2 µM -4% | [3]; at 3.7 µM -7% | [3]; at 11.0 µM -5% | [3]; at 33.0 µM -1% | [3]; at 100.0 µM -4% | [4]; at 1.2 µM -1% | [4]; at 3.7 µM -4% | [4]; at 11.0 µM -2% | [4]; at 33.0 µM -6% | [4]; at 100.0 µM -4% | [5]; at 1.2 µM 1% | [5]; at 3.7 µM -1% | [5]; at 11.0 µM 6% | [5]; at 33.0 µM 3% | [5]; at 100.0 µM -1% | [6]; at 1.2 µM -2% | [6]; at 3.7 µM -5% | [6]; at 11.0 µM -4% | [6]; at 33.0 µM -5% | [6]; at 100.0 µM -6% | [7]; at 1.2 µM -3% | [7]; at 3.7 µM -14% | [7]; at 11.0 µM -6% | [7]; at 33.0 µM -11% | [7]; at 100.0 µM 3% | [8]; at 1.2 µM -6% | [8]; at 3.7 µM -5% | [8]; at 11.0 µM -3% | [8]; at 33.0 µM -5% | [8]; at 100.0 µM -6%

O=C(NCP(=O)(Oc1ccccc1)Oc1ccccc1)OCc1ccccc1
inactive: [1]; at 1.2 µM -3% | [1]; at 3.7 µM -3% | [1]; at 11.0 µM -3% | [1]; at 33.0 µM -2% | [1]; at 100.0 µM -7% | [2]; at 1.2 µM -2% | [2]; at 3.7 µM -2% | [2]; at 11.0 µM 0% | [2]; at 33.0 µM -2% | [2]; at 100.0 µM -3% | [3]; at 1.2 µM -2% | [3]; at 3.7 µM -3% | [3]; at 11.0 µM -2% | [3]; at 33.0 µM -4% | [3]; at 100.0 µM -2% | [4]; at 1.2 µM -2% | [4]; at 3.7 µM 1% | [4]; at 11.0 µM -4% | [4]; at 33.0 µM -5% | [4]; at 100.0 µM 0% | [5]; at 1.2 µM -2% | [5]; at 3.7 µM 0% | [5]; at 11.0 µM -5% | [5]; at 33.0 µM -2% | [5]; at 100.0 µM 3% | [6]; at 1.2 µM -2% | [6]; at 3.7 µM -2% | [6]; at 11.0 µM -1% | [6]; at 33.0 µM -2% | [6]; at 100.0 µM -16% | [7]; at 1.2 µM -1% | [7]; at 3.7 µM 2% | [7]; at 11.0 µM 2% | [7]; at 33.0 µM -1% | [7]; at 100.0 µM 1% | [8]; at 1.2 µM -2% | [8]; at 3.7 µM -1% | [8]; at 11.0 µM 0% | [8]; at 33.0 µM -1% | [8]; at 100.0 µM -1%

CCCCN(CCCC)CC(=O)c1ccc(I)cc1
inactive: [1]; at 1.2 µM 0% | [1]; at 3.7 µM 1% | [1]; at 11.0 µM 9% | [1]; at 33.0 µM 21% | [1]; at 100.0 µM 45% | [2]; at 1.2 µM 0% | [2]; at 3.7 µM 6% | [2]; at 11.0 µM 7% | [2]; at 33.0 µM -2% | [2]; at 100.0 µM 10% | [3]; at 1.2 µM -7% | [3]; at 3.7 µM -10% | [3]; at 11.0 µM -6% | [3]; at 33.0 µM 0% | [3]; at 100.0 µM 17% | [4]; at 1.2 µM 1% | [4]; at 3.7 µM 7% | [4]; at 11.0 µM 23% | [4]; at 33.0 µM 25% | [4]; at 100.0 µM 52% | [5]; at 1.2 µM -2% | [5]; at 3.7 µM -8% | [5]; at 11.0 µM 6% | [5]; at 33.0 µM 25% | [5]; at 100.0 µM 37% | [6]; at 1.2 µM 0% | [6]; at 3.7 µM 2% | [6]; at 11.0 µM 7% | [6]; at 33.0 µM 9% | [6]; at 100.0 µM 23% | [7]; at 1.2 µM -5% | [7]; at 3.7 µM -1% | [7]; at 11.0 µM 4% | [7]; at 33.0 µM 12% | [7]; at 100.0 µM 29% | [8]; at 1.2 µM 0% | [8]; at 3.7 µM 0% | [8]; at 11.0 µM 10% | [8]; at 33.0 µM 23% | [8]; at 100.0 µM 49%

O=C(O)C(O)C(O)C1[O][Sb][O]C1CO (stereo not given)
inactive: [1]; at 1.2 µM 1% | [1]; at 3.7 µM 2% | [1]; at 11.0 µM 6% | [1]; at 33.0 µM 1% | [1]; at 100.0 µM -5% | [2]; at 1.2 µM 0% | [2]; at 3.7 µM 0% | [2]; at 11.0 µM 1% | [2]; at 33.0 µM 1% | [2]; at 100.0 µM 0% | [3]; at 1.2 µM 0% | [3]; at 3.7 µM -3% | [3]; at 11.0 µM 0% | [3]; at 33.0 µM -1% | [3]; at 100.0 µM 2% | [4]; at 1.2 µM 0% | [4]; at 3.7 µM 13% | [4]; at 11.0 µM 3% | [4]; at 33.0 µM 3% | [4]; at 100.0 µM 4% | [5]; at 1.2 µM -1% | [5]; at 3.7 µM 0% | [5]; at 11.0 µM 2% | [5]; at 33.0 µM 5% | [5]; at 100.0 µM 4% | [6]; at 1.2 µM 2% | [6]; at 3.7 µM 2% | [6]; at 11.0 µM 3% | [6]; at 33.0 µM 3% | [6]; at 100.0 µM 4% | [7]; at 1.2 µM -2% | [7]; at 3.7 µM -7% | [7]; at 11.0 µM -2% | [7]; at 33.0 µM -6% | [7]; at 100.0 µM 11% | [8]; at 1.2 µM 0% | [8]; at 3.7 µM -4% | [8]; at 11.0 µM -3% | [8]; at 33.0 µM -3% | [8]; at 100.0 µM -3%
